Source: paper PMC12529098
These are yes or no findings as the source states them, for the method shown. In cells and extracts the contact can be indirect. Some binding calls cover weakened binding; strength is not graded here.

Protein sequences, listed by entry. Tags and fused reporters are not part of them.
UniProt Q62296: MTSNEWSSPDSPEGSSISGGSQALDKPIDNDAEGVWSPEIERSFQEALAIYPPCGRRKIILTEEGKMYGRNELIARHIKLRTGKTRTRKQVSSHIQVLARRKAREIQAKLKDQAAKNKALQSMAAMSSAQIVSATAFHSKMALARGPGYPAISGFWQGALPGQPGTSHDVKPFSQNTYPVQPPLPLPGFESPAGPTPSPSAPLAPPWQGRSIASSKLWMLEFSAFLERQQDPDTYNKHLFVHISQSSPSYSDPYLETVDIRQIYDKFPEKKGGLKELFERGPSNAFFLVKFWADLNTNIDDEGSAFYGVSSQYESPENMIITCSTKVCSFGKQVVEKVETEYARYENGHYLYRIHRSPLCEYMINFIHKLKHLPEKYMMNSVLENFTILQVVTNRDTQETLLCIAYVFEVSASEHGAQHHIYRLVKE
UniProt Q8BQQ1: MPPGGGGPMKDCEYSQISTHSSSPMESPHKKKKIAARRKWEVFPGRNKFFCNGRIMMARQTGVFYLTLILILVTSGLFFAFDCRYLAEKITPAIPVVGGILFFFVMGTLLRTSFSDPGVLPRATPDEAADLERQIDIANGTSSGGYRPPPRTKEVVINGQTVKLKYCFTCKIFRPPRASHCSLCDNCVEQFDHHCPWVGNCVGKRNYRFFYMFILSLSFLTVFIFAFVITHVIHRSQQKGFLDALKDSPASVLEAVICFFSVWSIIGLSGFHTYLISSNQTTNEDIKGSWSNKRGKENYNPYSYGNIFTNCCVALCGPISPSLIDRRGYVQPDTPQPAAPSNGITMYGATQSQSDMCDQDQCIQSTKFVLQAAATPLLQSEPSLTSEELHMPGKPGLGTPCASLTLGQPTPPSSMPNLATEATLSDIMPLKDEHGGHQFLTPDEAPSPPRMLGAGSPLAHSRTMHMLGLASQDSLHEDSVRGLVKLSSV

Target: TEAD4 (mouse (endogenous in pmTECs)) (UniProt Q62296)
Experiment: co-IP; renal TECs following inflammatory injury; cells lysed in NP-40 buffer; eluted proteins (100 ug per sample) analysed by Western blot; which protein was precipitated is not given

With “ZDHHC14 (from UniProt Q8BQQ1 1-489) (enzyme)” the binding was “binds”.
